Experimental findings from paper PMC8261488, “Contraceptive progestins with androgenic properties stimulate breast epithelial cell proliferation” (EMBO Molecular Medicine, 2021) are described below.

Series [1] relates to human breast tissue microstructures (EpCAM+ cells). The series can be described thus: RNA sequencing of EpCAM+ cells from human breast tissue microstructures stimulated ex vivo. It counts as cell-based. Conditions: 14–18 h exposure; for number of genes with affected expression levels: adj.P < 0.05, n = 3.
The next series relates to mouse mammary organoids. Kind of series: RNA sequencing of mouse mammary organoids stimulated ex vivo with R5020. It counts as cell-based. Conditions: R5020 20 nM, 6 h, adj. P.Val < 0.05. An excerpt:
To test this hypothesis, we sought for biological readouts in physiologically relevant models. First, we recurred to using an ex vivo assay for the transcriptional response of the mouse mammary epithelium to hormones. We isolated mammary glands from several inbred adult female mice, treated them mechanically and enzymatically to generate epithelial‐enriched organoids, which remain hormone‐responsive (Ayyanan et al, 2011), and exposed them either to vehicle or to the stable progesterone mimic promegestone (R5020, 20 nM) for 6 h and performed RNA sequencing (Fig 1A). Three independent experiments were performed, and principal component analysis (PCA) grouped the samples according to treatment (Fig 1B). […] Together, these observations confirm that PR signaling is intact in this ex vivo model and that the functionally important factors, Rankl and Wnt4, are robust PR target genes in the mouse mammary epithelium.
Animal experiments were performed in accordance with protocol approved by the Service de la Consommation et des Affaires vétérinaires of Canton de Vaud (VD 1865.3, VD 1865.4). NOD. Cg‐Prkdc^scid Il2rg^tm1Wjl/SzJ mice (Charles River), BalbC, and C57Bl6 breeders were purchased from Jackson Laboratories. Mammary glands were isolated from 18‐ to 35‐week‐old mice, lymph nodes removed, minced with surgical blades, and digested in DMEM/F12, 1% penicillin/streptomycin B with collagenase A 0.25 mg/ml (Roche). Tissue was concomitantly stimulated with hormones for 1, 2, or 6 h and centrifuged at 652 g for 5 min. Fat was removed, and pellet containing organoids washed with phosphate‐buffered saline (PBS), resuspended 5 min in 3 ml red cell blood lysis buffer and washed twice with PBS.
RNAseq libraries were prepared using Truseq Stranded RNA producing single‐end reads of 100 bp and sequenced on Illumina Hiseq 2500 instrument. […]
Sequencing reads were quality controlled using FastQC (v0.11.8) (Wingett & Andrews, 2018). Mouse raw reads were aligned to the mouse genome (mm9) and human raw reads to the human genome (hg19) using TopHat (v2.0.11) (Kim et al, 2013). […]

Turning to `CC(=O)[C@H]1CC[C@H]2[C@@H]3CCC4=CC(=O)CC[C@]4(C)[C@H]3CC[C@]12C` [progesterone], the “number of genes with affected expression levels” value in series [1] amounted to 65.
In the series on mouse mammary organoids, `CCC(=O)[C@@]1(C)CC[C@H]2[C@@H]3CCC4=CC(=O)CCC4=C3CC[C@@]21C` [R5020, promegestone] showed a differentially expressed genes of 162, a down modulated genes of 55 and an upregulated genes of 107. Further, in series [1], the “share of progesterone-induced gene expression changes also induced by R5020” value was “More than 90%” and the “number of genes with affected expression levels” value stood at 112.
